# Molecular target: human prostaglandin transporter (hPGT) (Homo sapiens, UniProt Q92959)
# Assay: Inhibition of hPGT-mediated tracer PGE2 uptake in transfected HeLa cells
# Assay type: cell-based
smiles,measurement,value
NS(=O)(=O)c1cc(C(=O)O)c(NCc2ccco2)cc1Cl [Furosemide],potency as inhibitor of hPGT (in words),moderately-potent inhibitor

# — US5792851A, “Human prostaglandin transporter” (Albert Einstin College of Medicine of Yeshiva University, a …, priority 1996, dated 1998)
